PubChem BioAssay AID1159578, Peter MacCallum Cancer Centre – 2015
Shown is an unselected part of about 18,000 reagents. Over the whole deposit, about 1,030 (5.7%) got an active call. 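Inactive calls also include pools with fewer than 3300 nuclei, whose migration was not assessed.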 The raw values are shown without normalisation. Unmarked entries are inactive. No sequences are given here.

- Aim: 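Genome-wide hunt for genes controlling movement of lymphatic endothelial cells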 (primary screen)
- Cell system: human lymphatic endothelial cells
- Knock-down reagent: siRNA pool against human genes, 40 nM
- Duration: 48 h after transfection
- Measured: 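Cells stained with dye and imaged after a scratch; covered wound area and nuclei counted, duplicates averaged, migration set against mock wells and turned into a robust z-score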
- Reading the numbers: migration robust z-score: higher = faster migration into the scratch; migration relative to mock: higher = more scratch area covered than mock; nuclei per well: higher = more cells in the well
- Hit rule: 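Migration changed when robust z exceeds 2 or falls below -2 and mean nuclei number is at least 3300; otherwise not called changed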
- Meaning of the calls: active = migration changed; inactive = no migration change, or too few cells

| gene symbol | migration robust z-score | migration class with cell-count check | migration relative to mock | nuclei per well, duplicate mean |
| --- | --- | --- | --- | --- |
| SAGE1 | 0.12 | migration z between -2 and 2; enough cells | 0.92 | 5714 |
| BATF2 | -1.64 | migration z between -2 and 2; enough cells | 0.45 | 5822 |
| DDX50 | 0.8 | migration z between -2 and 2; enough cells | 0.96 | 5926 |
| TAS2R13 | -1.15 | migration z between -2 and 2; enough cells | 0.58 | 6086 |
| SH3BP4 | 0.14 | migration z between -2 and 2; enough cells | 0.92 | 5116 |
| DCP1A | 1.81 | migration z between -2 and 2; enough cells | 1.36 | 5288 |
| CDC26 | 1.04 | migration z between -2 and 2; enough cells | 1.16 | 6095 |
| F11R | 0.42 | migration z between -2 and 2; enough cells | 0.88 | 6054 |
| ARPC3 | -0.55 | migration z between -2 and 2; enough cells | 0.7 | 6067 |
| NCOA4 | -1.66 | migration z between -2 and 2; enough cells | 0.48 | 3723 |
| IRAK3 | -0.78 | migration z between -2 and 2; enough cells | 0.66 | 3509 |
| RBM28 | -0.56 | migration z between -2 and 2; enough cells | 0.74 | 5416 |
| GDF15 | -0.65 | migration z between -2 and 2; enough cells | 0.68 | 5334 |
| FIZ1 | -0.8 | migration z between -2 and 2; enough cells | 0.68 | 5898 |
| RPLP2 | -0.85 | migration z between -2 and 2; enough cells | 0.67 | 4946 |
| GCK | -3.87 (active) | migration z below -2; enough cells | 0.06 | 4042 |
| RNF175 | 1.33 | migration z between -2 and 2; enough cells | 1.06 | 6768 |
| STRN4 | 0.16 | migration z between -2 and 2; enough cells | 0.92 | 6382 |
| EIF1AX | -0.05 | migration z between -2 and 2; enough cells | 0.8 | 5816 |
| DENND5B | 0.31 | migration z between -2 and 2; enough cells | 0.96 | 6806 |
| PHTF1 | 0.02 | migration z between -2 and 2; enough cells | 0.81 | 3824 |
| TEPSIN | 2.3 (active) | migration z above 2; enough cells | 1.48 | 5548 |
| POLD3 | -4.04 | under 3300 nuclei; migration not judged | 0.02 | 2708 |
| C6orf89 | 2.02 (active) | migration z above 2; enough cells | 1.42 | 6159 |
| RPAP1 | 0.07 | migration z between -2 and 2; enough cells | 0.9 | 5098 |
| SPATA31A3 | 0.22 | migration z between -2 and 2; enough cells | 0.94 | 5239 |
| BORA | 0.1 | migration z between -2 and 2; enough cells | 0.92 | 5596 |
| FUBP3 | 0.6 | migration z between -2 and 2; enough cells | 1.04 | 5687 |
| LINC02903 | 1.09 | migration z between -2 and 2; enough cells | 1.17 | 6293 |
| PELO | 1.36 | migration z between -2 and 2; enough cells | 1.24 | 5838 |
| TEK | -2.62 (active) | migration z below -2; enough cells | 0.3 | 3481 |
| MAP2K2 | 0.73 | migration z between -2 and 2; enough cells | 0.94 | 5382 |
| TOX | -0.42 | migration z between -2 and 2; enough cells | 0.78 | 4679 |
| UGT1A6 | 0.13 | migration z between -2 and 2; enough cells | 0.83 | 6016 |
| ARHGAP8 | 1.71 | migration z between -2 and 2; enough cells | 1.14 | 5988 |
| TEX261 | 0.92 | migration z between -2 and 2; enough cells | 1.12 | 6114 |
| CBLIF | -0.28 | migration z between -2 and 2; enough cells | 0.75 | 5060 |
| SIX6 | -0.54 | migration z between -2 and 2; enough cells | 0.7 | 5020 |
| CCDC66 | -0.38 | migration z between -2 and 2; enough cells | 0.78 | 4769 |

Ordered by “nuclei per well, duplicate mean” (high to low): some entries from above
| gene symbol | migration robust z-score | migration class with cell-count check | migration relative to mock | nuclei per well, duplicate mean |
| --- | --- | --- | --- | --- |
| C6orf89 | 2.02 (active) | migration z above 2; enough cells | 1.42 | 6159 |
| TEPSIN | 2.3 (active) | migration z above 2; enough cells | 1.48 | 5548 |
| SPATA31A3 | 0.22 | migration z between -2 and 2; enough cells | 0.94 | 5239 |
| RPAP1 | 0.07 | migration z between -2 and 2; enough cells | 0.9 | 5098 |
| POLD3 | -4.04 | under 3300 nuclei; migration not judged | 0.02 | 2708 |
